{"source": "PubChem BioAssay AID1259308 (NCATS, 2017)", "test": "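Candidate targets for better recombinant protein yield in mammalian cells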 (primary screen)", "system": "human HEK293 embryonic kidney cells stably expressing firefly luciferase (HEK-CMV-Luc2-Hygro)", "reagents": "single siRNA against human genes, 0.8 pmol siRNA per well", "timing": "72 h", "detection": "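Reporter luminescence and viable-cell signal on separate replicate plates, given as percent of non-targeting control and median/MAD z-scores, plus per-cell luciferase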", "scale": "total luciferase, z-score: higher = more reporter protein produced", "active means": "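Active when the median/MAD z-score for overall luciferase is greater than 3; a gene was taken forward for validation with new siRNAs if at least two of its three siRNAs passed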", "calls": "active = raised luciferase; inactive = no rise", "note": "In all, the deposit lists about 59,000 reagents; below is a random part of them. About 1,510 of all reagents (2.6%) count as active. 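Calls use total luciferase alone and ignore viability, so some active siRNAs may act by altering cell number.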 A number with no mark means an inactive call. The numbers tell different reagents against one gene apart. Not all columns of the deposit are shown."}
{"gene symbol": "PDZRN4 (PDZ domain containing ring finger 4)", "reagent": 1, "total luciferase, z-score": -0.246}
{"gene symbol": "PDZRN4 (PDZ domain containing ring finger 4)", "reagent": 2, "total luciferase, z-score": -3.04}
{"gene symbol": "PDZRN4 (PDZ domain containing ring finger 4)", "reagent": 3, "total luciferase, z-score": 0.451}
{"gene symbol": "SPINK13 (serine peptidase inhibitor Kazal type 13)", "reagent": 1, "total luciferase, z-score": 1.65}
{"gene symbol": "SPINK13 (serine peptidase inhibitor Kazal type 13)", "reagent": 2, "total luciferase, z-score": -0.221}
{"gene symbol": "SPINK13 (serine peptidase inhibitor Kazal type 13)", "reagent": 3, "total luciferase, z-score": -0.129}
{"gene symbol": "UBXN11 (UBX domain protein 11)", "reagent": 1, "total luciferase, z-score": 2.58}
{"gene symbol": "UBXN11 (UBX domain protein 11)", "reagent": 2, "total luciferase, z-score": -0.206}
{"gene symbol": "UBXN11 (UBX domain protein 11)", "reagent": 3, "total luciferase, z-score": 0.624}
{"gene symbol": "NUS1 (NUS1 dehydrodolichyl diphosphate synthase subunit)", "reagent": 1, "total luciferase, z-score": -0.09}
{"gene symbol": "NUS1 (NUS1 dehydrodolichyl diphosphate synthase subunit)", "reagent": 2, "total luciferase, z-score": -0.716}
{"gene symbol": "NUS1 (NUS1 dehydrodolichyl diphosphate synthase subunit)", "reagent": 3, "total luciferase, z-score": -0.191}
{"gene symbol": "LINC02911 (long independently transcribed non-coding RNA 2911)", "reagent": 1, "total luciferase, z-score": -0.135}
{"gene symbol": "LINC02911 (long independently transcribed non-coding RNA 2911)", "reagent": 2, "total luciferase, z-score": 2.16}
{"gene symbol": "LINC02911 (long independently transcribed non-coding RNA 2911)", "reagent": 3, "total luciferase, z-score": -0.113}
{"gene symbol": "LYPLAL1-DT (LYPLAL1 divergent transcript)", "reagent": 1, "total luciferase, z-score": 0.0901}
{"gene symbol": "LYPLAL1-DT (LYPLAL1 divergent transcript)", "reagent": 2, "total luciferase, z-score": -0.832}
{"gene symbol": "LYPLAL1-DT (LYPLAL1 divergent transcript)", "reagent": 3, "total luciferase, z-score": -0.394}
{"gene symbol": "KLK2 (kallikrein related peptidase 2)", "reagent": 1, "total luciferase, z-score": -1.23}
{"gene symbol": "KLK2 (kallikrein related peptidase 2)", "reagent": 2, "total luciferase, z-score": -1.88}
{"gene symbol": "KLK2 (kallikrein related peptidase 2)", "reagent": 3, "total luciferase, z-score": 0.155}
{"gene symbol": "ZNF215 (zinc finger protein 215)", "reagent": 1, "total luciferase, z-score": 0.886}
{"gene symbol": "ZNF215 (zinc finger protein 215)", "reagent": 2, "total luciferase, z-score": -1}
{"gene symbol": "ZNF215 (zinc finger protein 215)", "reagent": 3, "total luciferase, z-score": -0.0134}
{"gene symbol": "KCNMB4", "reagent": 1, "total luciferase, z-score": 1.92}
{"gene symbol": "KCNMB4", "reagent": 2, "total luciferase, z-score": 2.41}
{"gene symbol": "KCNMB4", "reagent": 3, "total luciferase, z-score": -1.39}
{"gene symbol": "GSKIP (GSK3B interacting protein)", "reagent": 1, "total luciferase, z-score": -0.119}
{"gene symbol": "GSKIP (GSK3B interacting protein)", "reagent": 2, "total luciferase, z-score": 0.854}
{"gene symbol": "GSKIP (GSK3B interacting protein)", "reagent": 3, "total luciferase, z-score": -1.17}
{"gene symbol": "TNRC18 (trinucleotide repeat containing 18)", "reagent": 1, "total luciferase, z-score": 0.317}
{"gene symbol": "TNRC18 (trinucleotide repeat containing 18)", "reagent": 2, "total luciferase, z-score": -0.609}
{"gene symbol": "TNRC18 (trinucleotide repeat containing 18)", "reagent": 3, "total luciferase, z-score": 1.44}

Entries listed so far whose gene name starts with L or l (6):
{"gene symbol": "LINC02911 (long independently transcribed non-coding RNA 2911)", "reagent": 1, "total luciferase, z-score": -0.135}
{"gene symbol": "LINC02911 (long independently transcribed non-coding RNA 2911)", "reagent": 2, "total luciferase, z-score": 2.16}
{"gene symbol": "LINC02911 (long independently transcribed non-coding RNA 2911)", "reagent": 3, "total luciferase, z-score": -0.113}
{"gene symbol": "LYPLAL1-DT (LYPLAL1 divergent transcript)", "reagent": 1, "total luciferase, z-score": 0.0901}
{"gene symbol": "LYPLAL1-DT (LYPLAL1 divergent transcript)", "reagent": 2, "total luciferase, z-score": -0.832}
{"gene symbol": "LYPLAL1-DT (LYPLAL1 divergent transcript)", "reagent": 3, "total luciferase, z-score": -0.394}
